# Results deposited as PubChem BioAssay AID686938 (Drosophila RNAi Screening Center, 2013).
# Screen: 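Looking for CRAC channel components and the factors controlling them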 (primary screen)
# Cells: Drosophila S2R+ cells
# Reagents: long dsRNA against Drosophila genes, about 0.25 µg dsRNA per well, roughly 10,000 cells
# Timing: 5 days of knock-down before the calcium assay
# Conditions: thapsigargin (SERCA pump blocker) to empty calcium stores; entry signal taken 4 min after adding it
# Detection: 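Duplicate raw fluo-4 intensities per well from a plate reader, at rest and four minutes after thapsigargin emptied calcium stores; entry-to-rest ratio filled for only some wells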
# Scale: calcium entry signal: higher = stronger calcium signal after store depletion; resting calcium signal: higher = higher resting calcium signal
# Call rule: 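Called when the plate z-score of the entry-to-rest ratio, mean of duplicates, falls below −3; wells with low overall dye signal (Fmax z below −2) or more than five off-targets excluded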
# Meaning of the calls: active = strongly reduced calcium entry; inactive = no strong reduction
# The screen tested about 23,000 reagents; below is an unselected part of those with a known target gene and a result. Of all reagents, 75 (0.33%) were called active. 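Raw plate signals without normalisation; calls rest on plate z-scores that were not deposited; ratio present for only 364 wells.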 A number with no mark means an inactive call. Reagents against one gene are numbered here. A plus sign joins genes that one reagent is predicted to hit. Reagent sequences are not shown. Not stated in the record: the dose of the treatment.
target gene,dsRNA no.,"calcium entry signal, replicate 1 (fluorescence units)","calcium entry signal, replicate 2 (fluorescence units)","resting calcium signal, replicate 1 (fluorescence units)","resting calcium signal, replicate 2 (fluorescence units)"
InR,1,3.22e7,3.84e7,4.87e7,1.63e7
VhaAC45RP,1,5.27e7,2.92e7,2.57e7,1.61e7
tank,1,2.93e7,2.70e7,1.43e7,1.32e7
Snr1,1,2.42e7,3.23e7,1.30e7,1.78e7
CG17230,1,1.97e7,3.05e7,8.78e6,1.46e7
dmrt93B,1,3.98e7,4.91e7,6.16e7,2.10e7
lncRNA:CR31526,1,4.21e7,4.29e7,2.11e7,1.87e7
CG46298,1,3.53e7,4.56e7,1.77e7,2.07e7
MAN1,1,3.80e7,,1.91e7,
NimC2,1,5.22e7,3.38e7,2.22e7,1.58e7
GCC88,1,3.24e7,2.72e7,1.66e7,1.47e7
CG32806,1,4.44e7,3.44e7,2.40e7,1.65e7
Nipped-B,1,3.41e7,4.30e7,1.83e7,2.07e7
snRNA:U1:95Cc + snRNA:U1:95Cb,1,3.64e7,3.41e7,1.66e7,1.66e7
CG7102,1,4.25e7,,2.22e7,
CG7102,2,6.01e7,5.96e7,2.01e7,2.41e7
JhI-26,1,3.62e7,3.29e7,1.70e7,1.66e7
TBC1d7,1,4.68e7,6.22e7,2.49e7,2.81e7
EbpII,1,3.41e7,,1.65e7,
EbpII,2,3.42e7,3.83e7,2.06e7,1.70e7
Pdi,1,3.67e7,6.03e7,2.12e7,2.46e7
CG44014 + CG44013,1,2.67e7,6.05e7,1.34e7,5.93e7
apolpp,1,3.99e7,4.18e7,1.71e7,1.77e7
Sec16,1,2.34e7,3.01e7,1.26e7,1.57e7
Sec16,2,3.06e7,4.09e7,1.47e7,1.95e7
Obp56i,1,2.12e7,4.73e7,1.13e7,2.06e7
CG18814,1,5.68e7,7.43e7,2.57e7,2.75e7
corto,1,2.26e7,4.38e7,1.07e7,1.88e7
corto,2,2.93e7,4.48e7,1.41e7,1.97e7
corto,3,3.13e7,5.89e7,1.54e7,2.76e7
corto,4,4.06e7,3.01e7,2.07e7,1.39e7
CG42493,1,3.56e7,3.96e7,2.22e7,1.64e7
CG13454,1,3.62e7,3.42e7,1.90e7,1.73e7
Su(fu),1,3.35e7,4.37e7,1.51e7,1.90e7
CG1998,1,4.28e7,4.59e7,2.07e7,2.19e7
CG8219,1,2.72e7,4.60e7,1.39e7,2.14e7
CG14005,1,4.58e7,,2.01e7,
TBPH,1,2.81e7,,1.41e7,
CG13069,1,3.54e7,4.34e7,1.84e7,1.62e7
CG8060,1,3.99e7,3.39e7,1.85e7,1.62e7

Reformatted: results already given
Snr1: calcium entry signal, replicate 1 (fluorescence units) = 2.42e7; calcium entry signal, replicate 2 (fluorescence units) = 3.23e7; resting calcium signal, replicate 1 (fluorescence units) = 1.30e7; resting calcium signal, replicate 2 (fluorescence units) = 1.78e7
CG17230: calcium entry signal, replicate 1 (fluorescence units) = 1.97e7; calcium entry signal, replicate 2 (fluorescence units) = 3.05e7; resting calcium signal, replicate 1 (fluorescence units) = 8.78e6; resting calcium signal, replicate 2 (fluorescence units) = 1.46e7
